From patent US20140065649A1, “TEST SYSTEMS AND METHODS FOR IDENTIFYING AND CHARACTERISING LIPID LOWERING DRUGS” (Sanofi, priority 2011, published 2014) come the findings set out here.

This assay concerns hepatic low density lipoprotein receptor (LDLR) protein. Put plainly: Study 2: hepatic LDLR levels by Western blot. It counts as in vivo, Mesocricetus auratus. Conditions: Study 2, Western blot; 316P 10 mg/kg, atorvastatin 2×20 mg/kg.

Regarding `CC(C)c1c(C(=O)Nc2ccccc2)c(-c2ccccc2)c(-c2ccc(F)cc2)n1CC[C@@H](O)C[C@@H](O)CC(=O)O` [atorvastatin], the “level of hepatic LDLR expression compared with the PBS control groups” value is 89% and the “level of hepatic LDLR protein versus PBS control” value came to 0.89 fold.
